These are yes or no findings as the source states them, for the method shown. In cells and extracts the contact can be indirect. Some binding calls cover weakened binding; strength is not graded here.

Amino acid sequences for entries named in this document (tags omitted). A change or cut given only in a name is not applied to a line headed by its entry. Chains listed by the source or under a name are the forms on record and can include a tag or linker.
UniProt P61169: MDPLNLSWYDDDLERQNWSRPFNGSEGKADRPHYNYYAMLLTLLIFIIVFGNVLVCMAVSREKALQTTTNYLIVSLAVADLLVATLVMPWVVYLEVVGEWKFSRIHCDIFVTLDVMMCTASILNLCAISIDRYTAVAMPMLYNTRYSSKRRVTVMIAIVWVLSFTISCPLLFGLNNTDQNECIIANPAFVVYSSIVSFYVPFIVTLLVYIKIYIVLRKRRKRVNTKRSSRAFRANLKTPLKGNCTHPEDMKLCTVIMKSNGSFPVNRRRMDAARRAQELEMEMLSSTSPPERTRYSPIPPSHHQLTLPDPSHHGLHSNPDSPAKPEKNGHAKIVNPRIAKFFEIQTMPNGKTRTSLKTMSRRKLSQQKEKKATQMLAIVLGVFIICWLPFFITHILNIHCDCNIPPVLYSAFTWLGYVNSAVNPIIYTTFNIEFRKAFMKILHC
UniProt P14416: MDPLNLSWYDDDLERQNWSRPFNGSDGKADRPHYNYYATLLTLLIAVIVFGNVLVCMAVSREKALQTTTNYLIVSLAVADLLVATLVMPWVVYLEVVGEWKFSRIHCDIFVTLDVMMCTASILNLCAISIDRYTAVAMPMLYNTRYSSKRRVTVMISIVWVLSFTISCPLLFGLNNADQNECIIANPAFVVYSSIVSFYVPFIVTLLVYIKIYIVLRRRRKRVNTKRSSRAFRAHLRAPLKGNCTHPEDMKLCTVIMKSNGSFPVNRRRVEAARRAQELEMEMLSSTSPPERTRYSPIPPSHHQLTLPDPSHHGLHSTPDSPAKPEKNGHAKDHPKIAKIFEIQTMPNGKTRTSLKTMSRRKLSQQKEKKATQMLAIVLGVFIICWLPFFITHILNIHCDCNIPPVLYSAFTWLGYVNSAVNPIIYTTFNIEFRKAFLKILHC
dopamine D2 receptor short isoform fused to Renilla luciferase (D2SR^Rluc) (P14416, form named): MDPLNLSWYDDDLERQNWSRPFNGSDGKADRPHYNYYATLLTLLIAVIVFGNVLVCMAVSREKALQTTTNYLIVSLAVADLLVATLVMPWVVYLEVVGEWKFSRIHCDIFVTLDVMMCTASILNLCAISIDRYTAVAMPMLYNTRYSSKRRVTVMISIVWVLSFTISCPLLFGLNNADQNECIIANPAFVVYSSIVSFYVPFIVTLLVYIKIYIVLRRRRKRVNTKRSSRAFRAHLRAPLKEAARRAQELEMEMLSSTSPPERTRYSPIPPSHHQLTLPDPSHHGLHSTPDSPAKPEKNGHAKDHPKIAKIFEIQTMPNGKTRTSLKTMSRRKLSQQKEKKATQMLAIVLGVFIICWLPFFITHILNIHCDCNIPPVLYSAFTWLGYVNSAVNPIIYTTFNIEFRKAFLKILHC
UniProt Q9R0C9: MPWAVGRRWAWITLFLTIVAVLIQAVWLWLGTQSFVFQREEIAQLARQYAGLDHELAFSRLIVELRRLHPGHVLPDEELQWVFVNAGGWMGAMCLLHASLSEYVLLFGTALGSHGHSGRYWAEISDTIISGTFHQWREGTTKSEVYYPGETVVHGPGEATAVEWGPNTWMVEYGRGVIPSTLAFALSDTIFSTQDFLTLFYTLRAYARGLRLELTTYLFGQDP
UniProt Q99720: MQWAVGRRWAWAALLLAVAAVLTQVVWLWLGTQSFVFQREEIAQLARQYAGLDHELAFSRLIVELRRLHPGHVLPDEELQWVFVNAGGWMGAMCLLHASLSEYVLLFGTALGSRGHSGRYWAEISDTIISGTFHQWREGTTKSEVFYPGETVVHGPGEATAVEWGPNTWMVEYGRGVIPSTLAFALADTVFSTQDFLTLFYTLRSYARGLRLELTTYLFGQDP

For experiment [1], the target named is dopamine D2 receptor (D2R), endogenous in rat brain (rat (endogenous in brain sections)) (UniProt P61169). The experiment in a line: proximity ligation; in situ PLA on free-floating formalin-fixed rat brain sections (30 μm, Bregma 1.0 mm); mouse anti-D2R and rabbit anti-sigma1R primary antibodies; control with only one primary antibody.
Experiment [2] addresses dopamine D2 receptor short isoform fused to Renilla luciferase (D2SR^Rluc) (UniProt P14416). The experiment is described as follows: FRET or BRET; BRET2 saturation in HEK293T cells 48 h after transfection; constant (1 μg) D2R^Rluc plasmid, increasing (0.12-5 μg) δ1R^GFP2 plasmid; coelenterazine-400a 5 μM; cell suspension in PBS. (Bioluminescence resonance energy transfer reports proximity on the nanometre scale.)

Experiment [3] has as its target dopamine D2 receptor long isoform fused to Renilla luciferase (D2LR^Rluc) (UniProt P14416). The description is as above.
Experiment [4] shares this target. The experiment in a line: FRET or BRET; BRET2 competition in HEK293T cells; constant (1 μg) D2LR^Rluc and δ1R^GFP2 plasmids, increasing (0.1-8 μg) plasmid of untagged wild-type D2LR, D2SR or δ1R.

As for “sigma 1 receptor (δ1R), endogenous in rat brain (from UniProt Q9R0C9 1-223)”, the binding entry in experiment [1] was “binds”.

As to “sigma 1 receptor fused to GFP2 (δ1R^GFP2) (from UniProt Q99720 1-223)”, the binding result in experiment [2], in experiment [3] and in experiment [4] was “binds” in each case.

For the origin of these results see article PMC6728299.
